Assay results taken from PubChem BioAssay AID1347076 (National Center for Advancing Translational Sciences (NCATS), 2019).
The campaign covered roughly 400,000 compounds. About 13,000 (3.2%) were called active. The inconclusive results got no clear call from the source; some entries with a clear call stand among them for comparison. The call rests on the fitted dose curve; in most records, active means well fitted cell-killing curve with a large enough effect; inconclusive means small, poorly fitted or top-dose-only effect, or effect the other way; inactive means flat fitted curve, though single readings scatter. Potencies beside an inconclusive call are fits to weak or partial responses and may not hold up.

assay: qHTS assay for MDR1-selective chemotherapeutics: Primary screen using the drug-selected MDR subline cells KB-V1; conditions: KB-V1 MDR cells viability, CellTiter-Glo, 72 h; series mostly up to 46.1 µM; further: nearly all actives have a fitted effect of over 60% in size
Summary of the method: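 Potencies derive from concentration-effect curves fitted to normalized luminescence (CellTiter-Glo) of KB-V1 cells treated for 72 h at 37 degrees C in phenol-red-free DMEM containing 10% FBS.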
Potency means the concentration at half of the fitted maximal effect.

Row | Compound | Potency
1 | CC(NS(=O)(=O)c1cccc(Cl)c1)C(=O)Nc1ccc(-c2nc3ccccc3s2)cc1 (stereo unspecified) | inconclusive: 7.31 µM [cytotoxic, partial curve]
2 | COc1ccc(CCNC(=O)c2cccc(-n3cnnn3)c2)cc1 | inactive
3 | O=C(NCc1csc2ccc(Cl)cc12)Nc1ccccc1 | inconclusive: 23.1 µM [cytotoxic, single point]
4 | CCc1ccccc1NC(=O)Cn1cccc1C1=NC(c2ccccc2)CO1 (stereo unspecified) | inconclusive: 16.4 µM [cytotoxic, partial curve]
5 | CC(C)(C)NC(=O)C(c1ccccc1)n1c(-c2ccc(-c3ccccc3)cc2)nc2ccccc21 (stereo unspecified) | inconclusive: 8.2 µM [cytotoxic, partial curve]
6 | O=C(NCCc1ccccc1)C(=O)NCC(c1cccnc1)N1CCN(c2ccccc2)CC1 (stereo unspecified) | inactive
7 | O=[N+]([O-])c1cc(C(F)(F)F)ccc1SCC(O)CO (stereo unspecified) | inconclusive: 25.9 µM [cytotoxic, single point]
8 | C=C(C)CNC(=O)c1ccc(OC2CCN(S(=O)(=O)N(C)C)CC2)cc1 | inconclusive: 29.1 µM [cytotoxic, single point]
9 | Cc1nnc(NC(=O)CSc2n[nH]c(-c3ccccc3C)n2)s1 | inconclusive: 25.9 µM [rising, partial curve, poor fit]
10 | N#Cc1ccccc1NC(=O)C1CC(=O)N(c2ccc3c4c(cccc24)CC3)C1 (stereo unspecified) | inconclusive: 20.6 µM [cytotoxic, partial curve, poor fit]
11 | Cc1ccc(-c2nc3sc4c(c3c(=O)n2N)CCCC4)cc1 | inconclusive: 29.1 µM [cytotoxic, single point]
12 | CCn1c(-c2cc(OC)c(OC)c(OC)c2)n[nH]c1=S | active: 10.3 µM
13 | O=C(NC1CCOc2ccccc21)c1ccccn1 (stereo unspecified) | inconclusive: 20.6 µM [rising, single point]
14 | Cc1ccc2nc(-c3ccccc3)c(Cc3ccsc3)n2c1 | active: 20.6 µM
15 | O=[N+]([O-])c1ccc(CN2CCOCCOCCN(Cc3ccc([N+](=O)[O-])cc3)CCOCC2)cc1 | inconclusive: 6.51 µM [cytotoxic, partial curve]
16 | CSc1ccc(/C=C/c2ccc3cccc(O)c3n2)cc1 | inconclusive: 8.2 µM [cytotoxic, partial curve]
17 | Cn1cccc1C(C(=O)NC1CCCCC1)N(C(=O)Cc1cccs1)C1CC1 (stereo unspecified) | active: 6.51 µM
18 | Cc1ccc(C(=O)OCC(=O)Nc2ccccc2)cc1S(=O)(=O)N1CCCCC1 | inconclusive: 29.1 µM [cytotoxic, single point]
19 | Cc1ccn2c(=O)c(C(=O)NCCc3ccc(S(N)(=O)=O)cc3)c(O)nc2c1 | inactive
20 | Cc1[nH]c(=O)[nH]c(=O)c1C=CC(=O)NC(CO)CS(=O)Cc1ccccc1 (stereo unspecified) | inactive
21 | NCC(O)(c1ccc(Cl)cc1)c1ccc(Cl)cc1 | inactive
22 | O=C(Nc1ccc2oc(-c3ccncc3)nc2c1)c1c(F)c(F)c(F)c(F)c1F | inactive

Row | Compound | Potency
23 | COc1ccc2nc(C)cc(N/N=C/c3ccccc3)c2c1 | active: 20.6 µM
24 | CCCCC[C@@H]1[C@H]2[C@H]3C(=O)N(c4ccccc4)C(=O)[C@H]3CC(=O)[C@H]2[C@H](c2ccccc2)N1S(=O)(=O)c1ccc(C)cc1 | inactive
25 | C[C@@]12C(=O)N(c3cccc(F)c3)C(=O)N1[C@@H]1c3ccccc3OC[C@@H]1[C@H]2c1ccccc1 | inconclusive: 29.1 µM [cytotoxic, single point]
26 | COc1cccc(NC(=O)C2CC(=O)N(C)C(=Nc3cccc(F)c3)S2)c1 (stereo unspecified) | inconclusive: 16.4 µM [cytotoxic, single point]
27 | O=C(NNC(=S)Nc1ccc(Cl)cc1Cl)C1CC1 | inconclusive: 7.31 µM [rising, partial curve, poor fit]
28 | c1ccc(-c2c[n+]3c(n2-c2ccccc2)CCC3)cc1 | inactive
29 | CCCN1C(=O)/C(=C/c2ccc(N3CCOCC3)cc2)NC1=S | inconclusive: 18.4 µM [rising, partial curve, poor fit]
30 | Cc1ccc(NCc2ccccc2-c2nnc(-c3ccccc3Cl)o2)cc1Cl | inactive
31 | COc1ccc(N2C(=O)CSC23C(=O)N(CC(=O)NCc2ccccc2)c2ccccc23)cc1 (stereo unspecified) | inactive
32 | COc1ccc(CCN2C(=O)N(c3ccc(OC)cc3)C(=O)C2CC(=O)Nc2ccc(OC)cc2)cc1 (stereo unspecified) | inconclusive: 20.6 µM [cytotoxic, partial curve, poor fit]
33 | Cc1cc(C)cc(C(=O)Oc2coc(CSc3nnc(NC(=O)C4CC4)s3)cc2=O)c1 | inconclusive: 6.51 µM [rising, partial curve, poor fit]
34 | Cc1nn(CCCC(=O)Nc2sc3c(c2C#N)CCC3)c(C)c1[N+](=O)[O-] | inconclusive: 16.4 µM [cytotoxic, partial curve]
35 | COC(=O)CCCNC(=O)CC1C(=O)NCCN1Cc1ccoc1 (stereo unspecified) | inconclusive: 0.461 µM [rising, full curve, poor fit]
36 | O=C(NCc1cc(C(F)(F)F)cc(C(F)(F)F)c1)C1CC(c2ccccc2C(F)(F)F)=NO1 (stereo unspecified) | inconclusive: 1.84 µM [rising, partial curve, poor fit]
37 | COc1cc(C2C(C(=O)OC(C)C)=C(C)N=C3SCCC(=O)N32)ccc1OCc1ccccc1 (stereo unspecified) | inactive
38 | C/C(=N\NC(=S)NC(C)C)c1ccccc1 | inactive
39 | CCOc1ccc(NC(=O)COc2ccc(C(=O)N3CCC(C(N)=O)CC3)cc2OC)cc1 | inconclusive: 0.0164 µM [rising, full curve]
40 | C=C(C)COc1ccc(-c2n[nH]c(C)c2Oc2ccccc2OC)c(O)c1 | inconclusive: 20.6 µM [cytotoxic, single point]
41 | CCOC(=O)N1CCN(C(=O)COc2ccc3oc4c(c3c2)CCCC4)CC1 | inconclusive: 18.4 µM [cytotoxic, single point]
42 | CCCC(=O)Nc1nnc(S(=O)(=O)N(CC)c2ccc(OC)cc2)s1 | inactive
43 | Cc1ccc(C)c(N2CCN(C(=O)c3ccc(CS(=O)(=O)c4ccccc4C)o3)CC2)c1 | inconclusive: 25.9 µM [cytotoxic, single point]
44 | CCOC(=O)c1sc(C)c(C(N)=O)c1NC1=NCCCCC1 | inconclusive: 29.1 µM [rising, single point]

Among those listed so far, these contain a furan ring, fused or not.
Row | Compound | Potency
35 | COC(=O)CCCNC(=O)CC1C(=O)NCCN1Cc1ccoc1 (stereo unspecified) | inconclusive: 0.461 µM [rising, full curve, poor fit]
41 | CCOC(=O)N1CCN(C(=O)COc2ccc3oc4c(c3c2)CCCC4)CC1 | inconclusive: 18.4 µM [cytotoxic, single point]
43 | Cc1ccc(C)c(N2CCN(C(=O)c3ccc(CS(=O)(=O)c4ccccc4C)o3)CC2)c1 | inconclusive: 25.9 µM [cytotoxic, single point]

(listing goes on)

Row | Compound | Potency
45 | O=[N+]([O-])c1cccc(-c2cc(-c3cc(Br)ccc3O)[nH]n2)c1 | active: 20.6 µM
46 | CC(C)(C)c1ccc(OCC(=O)NCc2ccco2)c(Br)c1 | inconclusive: 16.4 µM [cytotoxic, partial curve]
47 | O=C(c1ccc(Cl)c([N+](=O)[O-])c1)N1CCN(c2ccccn2)CC1 | inconclusive: 11.6 µM [cytotoxic, partial curve]
48 | Cc1nn(CC(=O)N2CCN(c3ccccc3)CC2)c(=O)c2cc3cc(F)ccc3n12 | inconclusive: 29.1 µM [rising, single point]
49 | C#C[C@]1(O)CC[C@H]2[C@@H]3CCC4=C(CCC(=O)C4)[C@H]3CC[C@@]21C | active: 14.6 µM
50 | CC(C)(C)NC(=O)C(c1ccccc1)n1c(=O)c(-c2ccccc2)nc2ccccc21 (stereo unspecified) | inconclusive: 10.3 µM [cytotoxic, partial curve, poor fit]
51 | CCN(CC)CCNC(=O)c1ccc(NC(=O)Cc2ccsc2)cc1 | inconclusive: 7.31 µM [rising, partial curve, poor fit]
52 | CCOC(=O)c1c(NC(=O)CSc2cn(CCNC(=O)c3ccccc3OC)c3ccccc23)sc2c1CCCC2 | inconclusive: 16.4 µM [cytotoxic, single point]
53 | COC(=O)c1sccc1NC(=O)c1ccccc1F | inactive
54 | Cc1ccc(-n2c(CNc3ccc(F)cc3)nnc2SCC(N)=O)cc1 | inactive
55 | CCCCN(CC)CCCNC(=O)c1cc2cc3ccc(C)cc3nc2o1 | inactive
56 | Cc1c2cnn(CC(=O)Nc3cccc(C(F)(F)F)c3)c(=O)c2c(C)n1Cc1ccccc1F | inconclusive: 29.1 µM [cytotoxic, single point]
57 | N#Cc1ccc(COC(=O)CN2C(=O)NC3(CCCC3)C2=O)cc1 | inconclusive: 25.9 µM [rising, single point]
58 | CCOC(=O)N1CCC(N(CCOC)C(=O)Nc2ccc(Cl)cc2)CC1 | inconclusive: 8.2 µM [cytotoxic, partial curve, poor fit]
59 | COc1ccc(NC(=O)C[C@H]2C(=O)N(C3CCCCC3)C[C@@H]2c2ccc(OC)cc2)cc1 | inconclusive: 0.731 µM [rising, full curve, poor fit]
60 | COc1ccc(-n2ncc3c(N4CCN(Cc5ccccc5)CC4)ncnc32)cc1 | active: 13 µM
61 | CC(C)CNC(=O)CSc1nnc(-c2ccc(Cl)cc2)n1N | inconclusive: 7.31 µM [cytotoxic, partial curve]
62 | CCCCCCCCN1C(=O)[C@H](CC(=O)NCc2cccs2)C[C@@]2(C(=O)OC)CC(C)(C)CC=C12 | inconclusive: 9.2 µM [cytotoxic, partial curve]
63 | O=C1N/C(=N/S(=O)(=O)c2ccccc2)S/C1=C/c1cccnc1 | inconclusive: 23.1 µM [cytotoxic, single point]
64 | CN1CCN(C(=O)CCN2C(=O)/C(=C/c3ccccc3Cl)SC2=S)CC1 | inconclusive: 29.1 µM [cytotoxic, single point]
65 | CN(C)c1ccc(C(CNS(=O)(=O)c2ccc(F)c(F)c2)c2c[nH]c3ccccc23)cc1 (stereo unspecified) | inconclusive: 20.6 µM [cytotoxic, single point]
66 | NS(=O)(=O)c1ccc(CCNC(=O)C2CCCN(S(=O)(=O)c3cccnc3)C2)cc1 (stereo unspecified) | inconclusive: 8.2 µM [rising, partial curve]
